The values below come from the supplement of paper PMC12819154, “High-throughput peptide-centric local stability assay extends protein–ligand identification to membrane proteins, tissues and bacteria” (Nature Structural & Molecular Biology, 2025).

By UniProt entry, the sequences of proteins in these tests, tags left out. Where a name states a change or a piece, a line headed by the entry shows the natural chain unless it says otherwise.
UniProt Q15084: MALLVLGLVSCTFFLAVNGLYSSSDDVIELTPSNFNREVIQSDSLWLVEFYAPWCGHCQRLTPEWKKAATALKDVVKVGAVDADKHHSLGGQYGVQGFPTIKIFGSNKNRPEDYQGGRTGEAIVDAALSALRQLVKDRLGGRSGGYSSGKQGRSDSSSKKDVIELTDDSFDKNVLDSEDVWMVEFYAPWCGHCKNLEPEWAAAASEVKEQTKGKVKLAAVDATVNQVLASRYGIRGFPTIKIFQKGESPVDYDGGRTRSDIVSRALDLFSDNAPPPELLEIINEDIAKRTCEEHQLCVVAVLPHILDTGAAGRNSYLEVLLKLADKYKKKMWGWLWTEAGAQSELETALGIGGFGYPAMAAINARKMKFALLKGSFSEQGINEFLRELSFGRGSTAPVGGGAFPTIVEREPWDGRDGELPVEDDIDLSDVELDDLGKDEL
UniProt Q3MII6: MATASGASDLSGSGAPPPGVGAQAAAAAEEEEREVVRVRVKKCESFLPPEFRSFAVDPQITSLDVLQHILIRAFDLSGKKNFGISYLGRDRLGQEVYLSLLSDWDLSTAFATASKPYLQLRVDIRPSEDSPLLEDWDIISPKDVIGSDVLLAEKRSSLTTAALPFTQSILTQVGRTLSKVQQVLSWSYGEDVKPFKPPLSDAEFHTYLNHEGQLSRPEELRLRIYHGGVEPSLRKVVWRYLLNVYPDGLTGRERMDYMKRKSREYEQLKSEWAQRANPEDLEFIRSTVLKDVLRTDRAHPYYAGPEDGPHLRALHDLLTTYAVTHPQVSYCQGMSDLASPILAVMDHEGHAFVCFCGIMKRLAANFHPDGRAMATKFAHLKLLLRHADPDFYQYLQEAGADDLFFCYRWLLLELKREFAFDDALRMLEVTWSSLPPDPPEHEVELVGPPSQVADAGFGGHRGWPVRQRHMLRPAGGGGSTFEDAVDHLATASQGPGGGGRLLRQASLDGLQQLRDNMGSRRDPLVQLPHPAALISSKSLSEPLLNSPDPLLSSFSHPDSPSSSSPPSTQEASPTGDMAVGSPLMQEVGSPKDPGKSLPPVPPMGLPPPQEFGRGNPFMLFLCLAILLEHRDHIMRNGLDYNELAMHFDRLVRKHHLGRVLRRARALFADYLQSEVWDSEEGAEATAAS
UniProt Q15554: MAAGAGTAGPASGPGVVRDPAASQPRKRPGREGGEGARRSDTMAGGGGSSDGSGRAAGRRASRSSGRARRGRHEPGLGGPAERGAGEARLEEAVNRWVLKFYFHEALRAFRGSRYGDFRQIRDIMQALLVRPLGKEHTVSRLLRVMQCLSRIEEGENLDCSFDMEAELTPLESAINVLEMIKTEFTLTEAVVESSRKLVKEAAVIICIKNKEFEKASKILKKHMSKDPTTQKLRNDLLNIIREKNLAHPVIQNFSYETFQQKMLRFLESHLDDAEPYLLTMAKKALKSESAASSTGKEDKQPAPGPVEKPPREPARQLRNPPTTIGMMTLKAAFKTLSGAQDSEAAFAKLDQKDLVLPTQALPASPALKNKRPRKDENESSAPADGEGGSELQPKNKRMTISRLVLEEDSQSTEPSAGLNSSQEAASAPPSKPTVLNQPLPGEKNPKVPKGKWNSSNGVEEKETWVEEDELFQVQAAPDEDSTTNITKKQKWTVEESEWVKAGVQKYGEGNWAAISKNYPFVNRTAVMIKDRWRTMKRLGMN
UniProt Q3KQU3: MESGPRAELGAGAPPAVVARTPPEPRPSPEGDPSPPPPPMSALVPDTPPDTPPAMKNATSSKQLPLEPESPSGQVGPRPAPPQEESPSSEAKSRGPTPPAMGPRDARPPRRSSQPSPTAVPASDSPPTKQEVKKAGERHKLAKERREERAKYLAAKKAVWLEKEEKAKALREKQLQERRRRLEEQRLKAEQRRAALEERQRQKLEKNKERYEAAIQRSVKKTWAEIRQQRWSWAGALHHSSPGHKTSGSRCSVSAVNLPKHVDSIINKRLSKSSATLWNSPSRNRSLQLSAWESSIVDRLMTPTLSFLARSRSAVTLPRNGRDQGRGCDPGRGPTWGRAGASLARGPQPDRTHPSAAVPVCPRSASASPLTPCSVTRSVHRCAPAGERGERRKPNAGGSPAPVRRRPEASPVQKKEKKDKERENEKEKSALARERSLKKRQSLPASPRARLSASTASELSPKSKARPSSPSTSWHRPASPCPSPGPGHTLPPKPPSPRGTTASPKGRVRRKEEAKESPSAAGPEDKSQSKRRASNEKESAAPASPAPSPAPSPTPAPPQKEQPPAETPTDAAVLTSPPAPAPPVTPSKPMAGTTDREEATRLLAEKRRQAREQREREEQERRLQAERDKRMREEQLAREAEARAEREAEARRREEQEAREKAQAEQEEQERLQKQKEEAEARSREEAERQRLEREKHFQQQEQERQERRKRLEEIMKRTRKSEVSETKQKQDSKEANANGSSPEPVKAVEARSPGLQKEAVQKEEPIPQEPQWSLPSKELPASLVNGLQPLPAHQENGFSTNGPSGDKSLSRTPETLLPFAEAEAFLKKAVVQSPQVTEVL
UniProt Q32P44: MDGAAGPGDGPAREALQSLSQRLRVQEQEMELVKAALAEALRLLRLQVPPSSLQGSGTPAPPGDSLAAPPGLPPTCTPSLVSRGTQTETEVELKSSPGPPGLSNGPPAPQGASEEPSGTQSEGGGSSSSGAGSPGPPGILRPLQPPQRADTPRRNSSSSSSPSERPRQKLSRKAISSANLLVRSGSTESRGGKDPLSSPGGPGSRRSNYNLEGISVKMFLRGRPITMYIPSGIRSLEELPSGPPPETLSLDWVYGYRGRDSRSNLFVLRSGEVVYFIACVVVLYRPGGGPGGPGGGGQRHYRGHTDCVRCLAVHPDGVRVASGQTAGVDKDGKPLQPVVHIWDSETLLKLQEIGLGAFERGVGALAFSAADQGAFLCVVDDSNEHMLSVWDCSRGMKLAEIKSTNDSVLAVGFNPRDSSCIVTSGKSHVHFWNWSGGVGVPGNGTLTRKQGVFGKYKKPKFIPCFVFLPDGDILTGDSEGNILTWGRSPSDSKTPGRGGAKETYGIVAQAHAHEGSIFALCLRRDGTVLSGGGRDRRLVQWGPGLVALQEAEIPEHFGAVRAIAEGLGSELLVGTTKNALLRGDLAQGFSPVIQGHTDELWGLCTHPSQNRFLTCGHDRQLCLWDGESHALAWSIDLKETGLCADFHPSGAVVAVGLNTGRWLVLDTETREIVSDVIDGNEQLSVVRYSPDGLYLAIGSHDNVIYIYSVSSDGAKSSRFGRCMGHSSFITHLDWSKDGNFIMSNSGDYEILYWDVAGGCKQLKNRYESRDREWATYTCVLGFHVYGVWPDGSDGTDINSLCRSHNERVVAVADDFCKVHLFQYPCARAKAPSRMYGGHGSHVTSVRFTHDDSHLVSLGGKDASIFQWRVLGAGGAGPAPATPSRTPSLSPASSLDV
UniProt Q49A88: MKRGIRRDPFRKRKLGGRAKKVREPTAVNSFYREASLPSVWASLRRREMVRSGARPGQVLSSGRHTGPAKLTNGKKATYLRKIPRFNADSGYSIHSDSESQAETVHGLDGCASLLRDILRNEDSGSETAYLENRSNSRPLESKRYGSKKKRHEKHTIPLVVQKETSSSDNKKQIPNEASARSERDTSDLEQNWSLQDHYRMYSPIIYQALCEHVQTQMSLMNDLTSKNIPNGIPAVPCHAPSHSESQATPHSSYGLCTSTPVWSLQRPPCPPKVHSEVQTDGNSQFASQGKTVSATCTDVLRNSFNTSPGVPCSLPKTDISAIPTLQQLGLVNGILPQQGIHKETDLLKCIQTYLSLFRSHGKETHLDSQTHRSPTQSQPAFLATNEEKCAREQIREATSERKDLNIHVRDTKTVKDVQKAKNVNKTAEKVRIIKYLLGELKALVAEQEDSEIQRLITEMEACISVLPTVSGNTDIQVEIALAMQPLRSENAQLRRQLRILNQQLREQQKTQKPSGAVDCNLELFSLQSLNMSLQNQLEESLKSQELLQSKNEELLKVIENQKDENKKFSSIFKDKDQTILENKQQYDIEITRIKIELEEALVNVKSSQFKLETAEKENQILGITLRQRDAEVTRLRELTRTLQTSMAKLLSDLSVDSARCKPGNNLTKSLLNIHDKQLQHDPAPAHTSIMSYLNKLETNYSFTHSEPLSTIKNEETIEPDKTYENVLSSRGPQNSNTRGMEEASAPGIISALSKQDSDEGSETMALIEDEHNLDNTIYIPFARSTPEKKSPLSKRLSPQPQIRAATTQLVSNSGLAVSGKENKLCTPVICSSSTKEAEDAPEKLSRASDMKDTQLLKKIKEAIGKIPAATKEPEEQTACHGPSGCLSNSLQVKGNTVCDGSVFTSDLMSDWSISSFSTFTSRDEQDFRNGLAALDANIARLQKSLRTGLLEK
UniProt Q15459: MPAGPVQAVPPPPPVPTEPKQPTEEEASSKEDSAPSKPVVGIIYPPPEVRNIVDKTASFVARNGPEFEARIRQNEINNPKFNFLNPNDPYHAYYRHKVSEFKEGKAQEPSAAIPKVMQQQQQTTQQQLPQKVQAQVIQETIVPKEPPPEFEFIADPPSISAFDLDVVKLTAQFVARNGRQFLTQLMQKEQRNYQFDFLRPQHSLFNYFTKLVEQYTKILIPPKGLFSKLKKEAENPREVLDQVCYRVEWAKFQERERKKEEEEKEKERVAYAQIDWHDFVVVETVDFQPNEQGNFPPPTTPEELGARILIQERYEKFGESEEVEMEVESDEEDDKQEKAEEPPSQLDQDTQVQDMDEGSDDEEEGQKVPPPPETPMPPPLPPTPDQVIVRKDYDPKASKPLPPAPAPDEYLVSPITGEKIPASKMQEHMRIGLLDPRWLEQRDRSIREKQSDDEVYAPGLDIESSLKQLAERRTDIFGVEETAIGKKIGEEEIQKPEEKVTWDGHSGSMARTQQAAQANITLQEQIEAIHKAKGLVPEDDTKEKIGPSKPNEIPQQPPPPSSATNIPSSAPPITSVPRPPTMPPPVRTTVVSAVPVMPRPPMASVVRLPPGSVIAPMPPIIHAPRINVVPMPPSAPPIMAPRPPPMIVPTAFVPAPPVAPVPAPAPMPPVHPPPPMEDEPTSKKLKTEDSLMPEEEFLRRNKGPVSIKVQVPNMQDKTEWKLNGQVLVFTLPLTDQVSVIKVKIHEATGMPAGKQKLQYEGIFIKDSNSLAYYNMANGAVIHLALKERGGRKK
UniProt Q15506: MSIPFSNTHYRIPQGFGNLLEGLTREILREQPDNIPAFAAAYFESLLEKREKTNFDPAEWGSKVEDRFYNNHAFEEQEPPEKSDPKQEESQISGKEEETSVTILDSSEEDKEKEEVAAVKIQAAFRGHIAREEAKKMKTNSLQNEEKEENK
UniProt Q15785: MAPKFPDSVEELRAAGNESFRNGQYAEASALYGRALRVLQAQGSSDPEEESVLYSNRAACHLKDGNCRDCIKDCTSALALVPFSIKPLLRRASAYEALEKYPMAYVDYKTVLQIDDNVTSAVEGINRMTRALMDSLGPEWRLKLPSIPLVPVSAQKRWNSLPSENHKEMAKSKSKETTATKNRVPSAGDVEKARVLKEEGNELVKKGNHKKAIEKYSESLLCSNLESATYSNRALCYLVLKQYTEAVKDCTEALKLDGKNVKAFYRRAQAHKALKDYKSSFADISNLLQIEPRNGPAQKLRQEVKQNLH
UniProt Q16774: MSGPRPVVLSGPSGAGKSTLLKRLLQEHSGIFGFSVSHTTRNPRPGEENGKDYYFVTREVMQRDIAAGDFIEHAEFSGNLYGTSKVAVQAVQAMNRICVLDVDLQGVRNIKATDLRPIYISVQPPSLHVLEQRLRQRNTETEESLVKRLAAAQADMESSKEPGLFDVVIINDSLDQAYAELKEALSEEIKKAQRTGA
UniProt Q15910, whole entry, looked up: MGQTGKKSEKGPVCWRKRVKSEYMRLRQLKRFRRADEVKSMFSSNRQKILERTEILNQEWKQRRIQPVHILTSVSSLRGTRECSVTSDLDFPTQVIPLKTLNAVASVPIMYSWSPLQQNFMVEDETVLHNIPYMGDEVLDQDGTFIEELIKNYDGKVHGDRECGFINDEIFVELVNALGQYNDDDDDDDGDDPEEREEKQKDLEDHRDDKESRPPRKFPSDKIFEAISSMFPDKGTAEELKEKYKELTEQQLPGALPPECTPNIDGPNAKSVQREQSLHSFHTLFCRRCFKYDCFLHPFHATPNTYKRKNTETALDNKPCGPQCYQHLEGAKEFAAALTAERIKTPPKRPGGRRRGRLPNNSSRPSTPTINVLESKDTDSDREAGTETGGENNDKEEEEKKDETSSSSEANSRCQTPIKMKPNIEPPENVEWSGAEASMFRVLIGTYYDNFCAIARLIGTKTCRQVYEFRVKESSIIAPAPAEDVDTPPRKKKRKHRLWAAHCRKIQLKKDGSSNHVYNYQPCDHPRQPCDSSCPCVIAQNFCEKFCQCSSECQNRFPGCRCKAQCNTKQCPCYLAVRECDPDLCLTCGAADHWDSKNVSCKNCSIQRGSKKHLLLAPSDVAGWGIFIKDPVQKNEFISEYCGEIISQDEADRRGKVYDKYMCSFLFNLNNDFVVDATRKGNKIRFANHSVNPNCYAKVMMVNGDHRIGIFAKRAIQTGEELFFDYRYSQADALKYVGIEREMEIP

The list shows a part of the results. Small differences around the control level are noise.

Compound in the experiment: CN[C@@H]1C[C@H]2O[C@@](C)([C@@H]1OC)n1c3ccccc3c3c4c(c5c6ccccc6n2c5c31)C(=O)NC4 [staurosporine]
In words: log2 fold change of tryptic peptide abundance, ligand vs vehicle (limited proteolysis) (log2 ratio); higher = more trypsin-susceptible (destabilized). The note with it: ligand concentration: 20 uM; sample: K562 cleared lysate; digestion: 4 min, 22 C (HT-PELSA RT4min, Orbitrap Astral).
For “UniProt Q16206 (peptide sequence: LLQQALQGMQQHLLK, peptide start residue: 456)”, the log2 fold change is -0.583.

Regarding “PDIA6 (peptide sequence: HHSLGGQYGVQGFPTIK, peptide start residue: 86) (UniProt Q15084)”, the log2 fold change amounted to 0.332.

For “UniProt Q495B1 (peptide sequence: RVNTRAR, peptide start residue: 38)”, the log2 fold change is 0.0817.

Regarding “TBC1D25 (peptide sequence: RDPLVQLPHPAALISSK, peptide start residue: 521) (UniProt Q3MII6)”, the log2 fold change came out at 0.148.

Turning to “TERF2 (peptide sequence: WNSSNGVEEK, peptide start residue: 453) (UniProt Q15554)”, the log2 fold change is -0.336.

On to “UniProt Q3ZLR7 (peptide sequence: PQQEQSDCPPPPELR, peptide start residue: 249)”, for which the log2 fold change worked out at 0.0717.

Regarding “CDC37 (peptide sequence: KVAECQRK, peptide start residue: 60) (UniProt Q16543)”, the log2 fold change is -1.55.

Regarding “UniProt Q496Y0 (peptide sequence: VLLTQADALASR, peptide start residue: 69)”, the log2 fold change is -0.315.

As to “DPYSL2 (peptide sequence: GSPLVVISQGK, peptide start residue: 441) (UniProt Q16555)”, the log2 fold change was -0.29.

For “MAP7D1 (peptide sequence: TPETLLPFAEAEAFLKK, peptide start residue: 813) (UniProt Q3KQU3)”, the log2 fold change is -0.111.

As for “EML3 (peptide sequence: MYGGHGSHVTSVR, peptide start residue: 834) (UniProt Q32P44)”, the log2 fold change is -0.221.

Take “SSX1 (peptide sequence: KPAEDENDSK, peptide start residue: 115) (UniProt Q16384)”: the log2 fold change is -0.679.

“UniProt Q15750 (peptide sequence: LSAELLLGQLNAEHAEADVRR, peptide start residue: 84)”: the log2 fold change is -0.119.

For “UniProt Q15973 (peptide sequence: GEDQSIEDQYK, peptide start residue: 56)”, the log2 fold change is -0.554.

Regarding “ATP6AP1 (peptide sequence: SEDVPYTAALTAVRPSR, peptide start residue: 212) (UniProt Q15904)”, the log2 fold change was determined as 0.378.

As to “UniProt Q49A88 (peptide sequence: NGLAALDANIAR, peptide start residue: 930)”, the log2 fold change turned out to be 0.488.

In the case of “UniProt Q3YEC7 (peptide sequence: MFSALKK, peptide start residue: 1)”, the log2 fold change was found to be 0.0798.

With “SF1 (peptide sequence: NIEKECNAK, peptide start residue: 166) (UniProt Q15637)”, the log2 fold change was 0.136.

As to “MAPRE2 (peptide sequence: GRFQDNLDFIQWFK, peptide start residue: 142) (UniProt Q15555)”, the log2 fold change came out at 0.332.

As for “ELF2 (peptide sequence: TEGLVTCEK, peptide start residue: 585) (UniProt Q15723)”, the log2 fold change is -0.347.

With “SF3A1 (peptide sequence: HKVSEFK, peptide start residue: 96) (UniProt Q15459)”, the log2 fold change came to 0.255.

For “SPA17 (peptide sequence: TNSLQNEEKEENK, peptide start residue: 139) (UniProt Q15506)”, the log2 fold change is -0.161.

As to “CCDC6 (peptide sequence: LASLQQENKVLK, peptide start residue: 63) (UniProt Q16204)”, the log2 fold change worked out at 1.08.

On to “TOMM34 (peptide sequence: NRVPSAGDVEK, peptide start residue: 182) (UniProt Q15785)”, for which the log2 fold change amounted to 0.133.

As to “GUK1 (peptide sequence: RLLQEHSGIFGFSVSHTTR, peptide start residue: 23) (UniProt Q16774)”, the log2 fold change was found to be 0.519.

Regarding “PAFAH1B3 (peptide sequence: ELFSPLHALNFGIGGDGTQHVLWR, peptide start residue: 60) (UniProt Q15102)”, the log2 fold change is -0.268.

Take “PFKFB4 (peptide sequence: SFEFFLPDNEEGLKIR, peptide start residue: 88) (UniProt Q16877)”: the log2 fold change was -0.223.

Regarding “UniProt Q3KP31 (peptide sequence: ALSCSSSLR, peptide start residue: 196)”, the log2 fold change was -0.541.

With “ATP6V1F (peptide sequence: HPNFLVVEKDTTINEIEDTFR, peptide start residue: 33) (UniProt Q16864)”, the log2 fold change was found to be 0.39.

In the case of “EZH2 (peptide sequence: YSQADALK, peptide start residue: 728) (UniProt Q15910)”, the log2 fold change is -0.203.

As for “TPD52L1 (peptide sequence: KTHETLSHAGQK, peptide start residue: 98) (UniProt Q16890)”, the log2 fold change is 0.199.

Take “TSR1 (peptide sequence: RGHIKEPLGTHGHMK, peptide start residue: 738) (UniProt Q2NL82)”: the log2 fold change is 0.264.

In the case of “NFIL3 (peptide sequence: LIALGEENATLK, peptide start residue: 105) (UniProt Q16649)”, the log2 fold change was -0.674.

Take “TBCC (peptide sequence: AAVEELLERAESVER, peptide start residue: 69) (UniProt Q15814)”: the log2 fold change was 0.588.

With “TEAD2 (peptide sequence: IILSDEGK, peptide start residue: 58) (UniProt Q15562)”, the log2 fold change was found to be 0.203.

Consider “PPP2R5A (peptide sequence: ELEREELWK, peptide start residue: 448) (UniProt Q15172)”, for which the log2 fold change is -0.164.
